Test results taken from the supplement of paper PMC10849652.
The list shows a part of the results.

Amino acid sequences for entries named in this document (tags omitted). A change or cut given only in a name is not applied to a line headed by its entry.
UniProt Q14157: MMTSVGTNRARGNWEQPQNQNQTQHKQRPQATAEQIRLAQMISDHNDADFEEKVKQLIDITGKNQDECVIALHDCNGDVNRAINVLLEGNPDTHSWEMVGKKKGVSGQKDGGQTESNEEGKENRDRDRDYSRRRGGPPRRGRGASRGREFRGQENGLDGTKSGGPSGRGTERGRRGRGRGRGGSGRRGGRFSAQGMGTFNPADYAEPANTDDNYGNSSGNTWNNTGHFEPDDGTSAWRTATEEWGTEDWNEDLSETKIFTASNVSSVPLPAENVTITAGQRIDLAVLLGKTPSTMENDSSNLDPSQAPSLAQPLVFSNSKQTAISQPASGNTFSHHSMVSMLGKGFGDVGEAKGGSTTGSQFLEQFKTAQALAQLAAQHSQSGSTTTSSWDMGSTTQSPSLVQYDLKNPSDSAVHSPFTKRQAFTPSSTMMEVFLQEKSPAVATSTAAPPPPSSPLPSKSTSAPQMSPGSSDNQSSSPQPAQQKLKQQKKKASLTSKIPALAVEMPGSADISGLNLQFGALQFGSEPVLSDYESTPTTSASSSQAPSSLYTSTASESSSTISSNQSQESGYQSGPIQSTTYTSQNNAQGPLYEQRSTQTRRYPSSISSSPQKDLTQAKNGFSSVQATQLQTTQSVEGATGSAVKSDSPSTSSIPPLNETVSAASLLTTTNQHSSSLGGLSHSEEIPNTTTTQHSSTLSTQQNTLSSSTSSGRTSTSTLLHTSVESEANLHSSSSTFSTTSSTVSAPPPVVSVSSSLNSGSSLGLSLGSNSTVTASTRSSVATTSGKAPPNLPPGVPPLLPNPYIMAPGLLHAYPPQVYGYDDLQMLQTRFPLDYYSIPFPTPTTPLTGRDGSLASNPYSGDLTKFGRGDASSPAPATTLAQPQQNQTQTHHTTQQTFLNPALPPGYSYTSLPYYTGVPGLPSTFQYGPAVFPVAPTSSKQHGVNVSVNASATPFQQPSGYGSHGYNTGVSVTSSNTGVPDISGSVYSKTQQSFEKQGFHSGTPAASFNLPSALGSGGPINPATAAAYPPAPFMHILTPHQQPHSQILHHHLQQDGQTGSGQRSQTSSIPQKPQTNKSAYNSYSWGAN
UBE2L5, A0A1B0GUS4, UniProt A0A1B0GUS4, whole entry, looked up: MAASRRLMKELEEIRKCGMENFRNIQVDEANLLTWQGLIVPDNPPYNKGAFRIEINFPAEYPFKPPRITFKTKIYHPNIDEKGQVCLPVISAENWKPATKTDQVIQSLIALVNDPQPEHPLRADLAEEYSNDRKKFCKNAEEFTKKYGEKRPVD
UniProt Q9NPG3, whole entry, looked up: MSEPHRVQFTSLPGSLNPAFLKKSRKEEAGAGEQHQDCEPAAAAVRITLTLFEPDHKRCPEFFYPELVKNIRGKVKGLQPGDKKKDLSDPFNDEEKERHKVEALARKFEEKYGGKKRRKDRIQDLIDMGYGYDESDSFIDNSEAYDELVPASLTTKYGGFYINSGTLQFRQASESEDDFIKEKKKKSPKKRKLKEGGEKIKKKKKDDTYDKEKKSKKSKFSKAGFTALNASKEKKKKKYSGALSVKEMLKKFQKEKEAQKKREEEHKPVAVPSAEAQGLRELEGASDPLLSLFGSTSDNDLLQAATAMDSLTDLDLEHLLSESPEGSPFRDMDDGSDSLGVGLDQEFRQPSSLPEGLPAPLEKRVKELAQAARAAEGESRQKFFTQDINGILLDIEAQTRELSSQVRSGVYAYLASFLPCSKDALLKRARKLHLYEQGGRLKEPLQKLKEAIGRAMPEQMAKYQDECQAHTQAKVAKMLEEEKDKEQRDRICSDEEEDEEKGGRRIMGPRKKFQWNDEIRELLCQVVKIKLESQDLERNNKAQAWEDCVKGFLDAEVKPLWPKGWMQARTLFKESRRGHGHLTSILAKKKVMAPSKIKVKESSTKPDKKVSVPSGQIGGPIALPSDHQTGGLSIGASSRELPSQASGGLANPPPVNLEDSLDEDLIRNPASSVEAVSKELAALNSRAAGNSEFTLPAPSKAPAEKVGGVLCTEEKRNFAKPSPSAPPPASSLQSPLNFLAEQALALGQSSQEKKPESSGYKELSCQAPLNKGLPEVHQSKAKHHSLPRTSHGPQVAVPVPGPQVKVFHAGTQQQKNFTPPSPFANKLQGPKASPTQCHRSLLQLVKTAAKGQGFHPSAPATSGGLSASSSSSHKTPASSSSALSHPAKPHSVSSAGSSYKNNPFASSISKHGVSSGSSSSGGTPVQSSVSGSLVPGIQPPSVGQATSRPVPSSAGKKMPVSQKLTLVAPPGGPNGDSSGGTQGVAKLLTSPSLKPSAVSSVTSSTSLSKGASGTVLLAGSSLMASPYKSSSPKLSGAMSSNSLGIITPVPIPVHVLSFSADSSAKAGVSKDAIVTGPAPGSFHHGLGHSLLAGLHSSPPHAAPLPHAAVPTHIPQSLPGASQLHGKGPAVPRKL
UniProt P29597: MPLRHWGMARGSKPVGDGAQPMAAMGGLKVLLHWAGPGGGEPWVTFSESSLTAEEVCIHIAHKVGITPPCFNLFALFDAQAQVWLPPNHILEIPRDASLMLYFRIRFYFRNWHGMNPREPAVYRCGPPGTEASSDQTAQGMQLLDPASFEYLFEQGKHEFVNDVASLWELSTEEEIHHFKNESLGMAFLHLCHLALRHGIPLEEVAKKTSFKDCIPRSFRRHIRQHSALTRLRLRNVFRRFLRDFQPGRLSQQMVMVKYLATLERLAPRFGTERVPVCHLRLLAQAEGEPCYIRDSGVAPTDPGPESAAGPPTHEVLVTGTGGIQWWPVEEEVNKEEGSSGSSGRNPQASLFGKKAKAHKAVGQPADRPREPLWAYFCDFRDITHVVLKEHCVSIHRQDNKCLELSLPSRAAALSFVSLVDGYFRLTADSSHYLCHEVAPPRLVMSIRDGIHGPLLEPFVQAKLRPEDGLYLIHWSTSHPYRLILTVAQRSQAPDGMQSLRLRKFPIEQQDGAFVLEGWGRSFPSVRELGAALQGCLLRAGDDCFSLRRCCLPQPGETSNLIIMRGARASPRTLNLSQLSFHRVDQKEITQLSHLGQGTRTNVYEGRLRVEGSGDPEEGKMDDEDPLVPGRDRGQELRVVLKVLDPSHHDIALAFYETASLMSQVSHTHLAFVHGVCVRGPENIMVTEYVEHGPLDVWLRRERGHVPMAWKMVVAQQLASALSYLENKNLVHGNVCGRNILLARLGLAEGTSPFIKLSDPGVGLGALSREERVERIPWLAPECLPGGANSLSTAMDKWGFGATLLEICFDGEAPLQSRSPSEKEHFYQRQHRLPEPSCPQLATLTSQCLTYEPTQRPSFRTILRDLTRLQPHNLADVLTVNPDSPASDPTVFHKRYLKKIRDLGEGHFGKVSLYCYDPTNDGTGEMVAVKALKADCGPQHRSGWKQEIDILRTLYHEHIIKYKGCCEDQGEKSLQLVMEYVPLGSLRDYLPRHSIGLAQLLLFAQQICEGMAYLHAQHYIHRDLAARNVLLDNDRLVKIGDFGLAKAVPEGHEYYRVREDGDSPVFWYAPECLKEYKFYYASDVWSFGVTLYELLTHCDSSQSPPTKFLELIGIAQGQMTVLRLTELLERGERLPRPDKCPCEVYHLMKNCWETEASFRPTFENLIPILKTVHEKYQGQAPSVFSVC
UniProt Q9C0H2: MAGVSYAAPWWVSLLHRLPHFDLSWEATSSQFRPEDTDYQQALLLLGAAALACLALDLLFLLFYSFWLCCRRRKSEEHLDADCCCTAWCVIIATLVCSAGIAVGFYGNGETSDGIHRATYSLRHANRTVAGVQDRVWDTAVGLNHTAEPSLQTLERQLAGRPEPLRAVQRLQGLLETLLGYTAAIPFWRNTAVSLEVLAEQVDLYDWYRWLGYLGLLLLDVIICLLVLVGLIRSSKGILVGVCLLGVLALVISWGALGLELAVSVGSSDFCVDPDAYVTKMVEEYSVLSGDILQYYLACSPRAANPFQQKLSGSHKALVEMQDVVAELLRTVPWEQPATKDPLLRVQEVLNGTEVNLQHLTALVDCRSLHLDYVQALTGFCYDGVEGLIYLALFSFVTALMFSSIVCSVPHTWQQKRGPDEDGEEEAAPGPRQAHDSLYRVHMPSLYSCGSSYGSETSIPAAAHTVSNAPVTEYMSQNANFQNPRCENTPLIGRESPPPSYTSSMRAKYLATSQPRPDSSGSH
UniProt O94941: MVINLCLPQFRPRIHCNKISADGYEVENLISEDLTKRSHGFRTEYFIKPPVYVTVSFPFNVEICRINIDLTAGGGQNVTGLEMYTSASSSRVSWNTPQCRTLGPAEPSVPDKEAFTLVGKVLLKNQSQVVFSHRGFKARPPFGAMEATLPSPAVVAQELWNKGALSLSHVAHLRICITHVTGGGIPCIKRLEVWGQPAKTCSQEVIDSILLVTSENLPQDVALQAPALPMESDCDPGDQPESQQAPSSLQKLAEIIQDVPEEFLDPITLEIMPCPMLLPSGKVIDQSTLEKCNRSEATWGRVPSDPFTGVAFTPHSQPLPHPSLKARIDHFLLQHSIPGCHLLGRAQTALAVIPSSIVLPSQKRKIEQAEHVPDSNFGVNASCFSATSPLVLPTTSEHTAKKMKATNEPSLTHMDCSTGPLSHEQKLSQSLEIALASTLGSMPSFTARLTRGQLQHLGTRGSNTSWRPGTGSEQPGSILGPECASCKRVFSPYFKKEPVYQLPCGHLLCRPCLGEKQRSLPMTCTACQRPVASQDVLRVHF
UniProt Q9NY65, whole entry, looked up: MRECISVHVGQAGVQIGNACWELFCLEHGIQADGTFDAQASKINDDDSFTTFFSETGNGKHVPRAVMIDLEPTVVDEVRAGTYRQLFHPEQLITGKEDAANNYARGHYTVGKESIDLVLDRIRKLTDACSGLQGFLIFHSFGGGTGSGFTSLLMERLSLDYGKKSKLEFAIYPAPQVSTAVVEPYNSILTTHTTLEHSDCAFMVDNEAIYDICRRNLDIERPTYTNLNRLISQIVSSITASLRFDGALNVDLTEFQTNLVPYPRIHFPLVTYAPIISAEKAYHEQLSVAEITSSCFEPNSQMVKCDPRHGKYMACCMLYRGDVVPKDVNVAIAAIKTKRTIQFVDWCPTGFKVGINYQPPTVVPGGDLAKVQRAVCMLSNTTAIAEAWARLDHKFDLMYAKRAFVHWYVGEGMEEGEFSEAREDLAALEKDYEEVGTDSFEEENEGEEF
UniProt Q6PKC3: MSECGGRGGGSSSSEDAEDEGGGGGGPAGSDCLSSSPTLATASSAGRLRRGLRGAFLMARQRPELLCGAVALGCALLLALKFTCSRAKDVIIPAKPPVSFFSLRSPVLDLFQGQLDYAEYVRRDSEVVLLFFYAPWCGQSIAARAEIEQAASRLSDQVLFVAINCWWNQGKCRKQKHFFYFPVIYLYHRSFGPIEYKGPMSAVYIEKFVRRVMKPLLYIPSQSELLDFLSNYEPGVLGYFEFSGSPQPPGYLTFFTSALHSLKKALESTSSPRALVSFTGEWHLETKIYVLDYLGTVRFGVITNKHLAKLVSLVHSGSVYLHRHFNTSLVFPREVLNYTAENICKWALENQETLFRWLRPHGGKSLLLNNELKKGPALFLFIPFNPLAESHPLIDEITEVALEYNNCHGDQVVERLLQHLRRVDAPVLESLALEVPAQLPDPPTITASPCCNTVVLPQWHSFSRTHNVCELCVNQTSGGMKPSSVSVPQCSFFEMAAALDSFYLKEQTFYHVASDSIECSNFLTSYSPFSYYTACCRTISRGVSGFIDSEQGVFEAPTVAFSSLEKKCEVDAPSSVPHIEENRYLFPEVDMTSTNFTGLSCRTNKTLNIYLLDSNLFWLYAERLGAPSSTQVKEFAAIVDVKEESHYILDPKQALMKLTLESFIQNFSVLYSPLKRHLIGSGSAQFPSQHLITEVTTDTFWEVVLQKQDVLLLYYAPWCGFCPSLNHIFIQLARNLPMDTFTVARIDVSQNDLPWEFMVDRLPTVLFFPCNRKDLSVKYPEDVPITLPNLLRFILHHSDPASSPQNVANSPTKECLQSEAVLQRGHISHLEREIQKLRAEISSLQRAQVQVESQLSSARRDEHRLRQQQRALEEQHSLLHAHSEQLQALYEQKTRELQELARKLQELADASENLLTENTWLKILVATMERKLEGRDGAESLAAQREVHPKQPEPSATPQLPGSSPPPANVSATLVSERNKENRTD

How the values were obtained:
Assay in all cases: log2 fold change, soluble protein after heating vs DMSO (PISA); higher = thermal stabilisation; K562 lysate, 10 uM; active = over 0.2 and 3.5 SD of the protein, either way, in both replicates (recomputed)
[1] = compound: C1=CC2=NC=CN=C2C=C1/C=C/3\C(=O)NC(=O)S3
Procedure, shortened: (§1)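 Values give the log-two fold change in thermal stability against solvent controls, from duplicates. Crude K562 extract at 1 mg/mL protein, made by dounce homogenisation in PBS pH 7.4 with 1 mM MgCl2, was treated with 10 μM compound for 30 min. After 3 min heating across 48°C-58°C, aliquots were pooled, adjusted to 0.5% NP-40 at 4°C and centrifuged at 21,000xg for 90 min. The supernatant was measured by TMTpro 16plex LC-MS/MS with channel sums equalised.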

[2] = compound: C1=CC=C(C=C1)C2=NC(=C(N2)C3=CC=NC=C3)C4=CC(=C(C=C4)Cl)O
Procedure, shortened: as §1

IRAK-1-4 Inhibitor I = compound: C1COCCN1CCN2C3=CC=CC=C3N=C2NC(=O)C4=CC(=CC=C4)[N+](=O)[O-] [IRAK-1-4 Inhibitor I]
Procedure, shortened: as §1

erlotinib = compound: C#Cc1cccc(Nc2ncnc3cc(OCCOC)c(OCCOC)cc23)c1 [erlotinib]
Procedure, shortened: as §1

[3] = compound: C1=CC(=CC=C1C2=NC3=C(N2)C=C(C=C3)C(=O)N)OC4=CC=C(C=C4)Cl
Procedure, shortened: as §1

[4] = compound: C/C(=N\NC(=O)C1=CC(=CC=C1)S(=O)(=O)N2CCOCC2)/C3=C(C=CC(=C3)Cl)O
Procedure, shortened: as §1

[5] = compound: C1=CC2=C(C=CC(=C2)/C=C\3/C(=O)NC(=NCC4=CC=CS4)S3)N=C1
Procedure, shortened: as §1

[6] = compound: C1=CC=C2C(=C1)C3=NNC4=CC=CC(=C43)C2=O
Procedure, shortened: as §1

[7] = compound: C1CCN(C1)C(=O)NC2=CC=CC(=C2)NC3=NC=C(C(=N3)NCCC4=CN=CN4)Br
Procedure, shortened: as §1

[8] = compound: C1CN(CCC1(CC2=CC=C(C=C2)Cl)N)C3=NC=NC4=C3C=CN4
Procedure, shortened: as §1

Measured: log2 fold change

UBAP2L isoform 1 (UniProt Q14157)
inactive: [1] 0.081 | [2] -0.367 | IRAK-1-4 Inhibitor I 0.084

UBE2L5, A0A1B0GUS4
inactive: erlotinib 0.24 | [3] -0.16 | [2] 0.159 | IRAK-1-4 Inhibitor I 0.145

UBN1 (UniProt Q9NPG3)
inactive: [4] 0.032 | [5] -0.056 | [6] 0.051 | [7] 0 | [8] -0.023

TYK2 (UniProt P29597)
inactive: erlotinib 0.037 | [3] -0.249 | [7] 0.192 | [8] 0.055

TTYH3 isoform 4 (UniProt Q9C0H2)
inactive: erlotinib 0.067 | [3] -0.016

UBOX5 (UniProt O94941)
inactive: erlotinib -0.035 | [3] 0.08 | [2] -0.129 | IRAK-1-4 Inhibitor I -0.039

TUBGCP5 (UniProt Q96RT8)
inactive: [4] 0.001 | [5] -0.026 | [1] 0.024 | [2] 0.013 | [6] 0.01 | [7] -0.003 | [8] -0.043 | IRAK-1-4 Inhibitor I -0.034

TUBA8 (UniProt Q9NY65)
inactive: erlotinib -0.059 | [3] 0.004 | [1] -0.034 | [7] -0.074 | [8] -0.087

U2AF1L5 (UniProt P0DN76)
inactive: erlotinib -0.029 | [3] 0.044 | [2] -0.066 | [7] 0.109 | [8] -0.107 | IRAK-1-4 Inhibitor I 0.132

TXNDC11 (UniProt Q6PKC3)
inactive: erlotinib 0.222 | [3] -0.01 | [1] 0.076 | [2] -0.04 | [7] -0.06 | [8] -0.038 | IRAK-1-4 Inhibitor I 0.034
